No constants are given. Whether binding was seen depends on the method and setting. Some results given as binding are weak or reduced against the parent protein; the word gives no strength.
Biological target: IL-13 (UniProt P35225)
Experiment: IGEN plate binding assay, 96-well format

Chains of the proteins cited; added tags and fusions are not shown. Residues count along the entry.
UniProt P35225, residues 35-146: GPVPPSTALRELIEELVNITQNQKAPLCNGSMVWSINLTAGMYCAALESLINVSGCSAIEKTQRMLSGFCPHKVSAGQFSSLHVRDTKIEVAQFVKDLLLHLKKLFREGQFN

B1: IMA-638 (antibody, human IgG1, kappa, V domains shown)
VH: EVQLVESGGGLVQPGGSLRLSCAASGFTFISYAMSWVRQAPGKGLEWVASISSGGNTYYPDSVKGRFTISRDNAKNSLYLQMNSLRAEDTAVYYCARLDGYYFGFAYWGQGTLVTVSS
VL: DIQMTQSPSSLSASVGDRVTITCKASESVDNYGKSLMHWYQQKPGKAPKLLIYRASNLESGVPSRFSGSGSGTDFTLTISSLQPEDFATYYCQQSNEDPWTFGGGTKVEIKR
For B1, the binding was “binds”.

— patent US20090060906A1
